The list shows a part of the results.
Experiments:
Assay in all cases: log2 fold change, soluble protein after heating vs DMSO (PISA); higher = thermal stabilisation; K562 cells, 10 uM, 30 min; active = over 0.2 and 3.5 SD of the protein, either way, in both replicates (recomputed)
bafetinib = compound: Cc1ccc(NC(=O)c2ccc(CN3CC[C@H](N(C)C)C3)c(C(F)(F)F)c2)cc1Nc1nccc(-c2cncnc2)n1 [bafetinib]
Summary of the method: (§1)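 K562 cells at 2×10^6 cells/mL were given 10 μM compound for 30 min. Aliquots then went through 3 min of heating across 48°C-58°C, were pooled, and were extracted in PBS with 0.5% NP-40 at 4°C, and the supernatant after 21,000xg for 90 min was quantified by TMTpro 16plex LC-MS/MS with channel sums equalised. Thermal stability relative to control samples, from duplicates, is given as log2 fold change.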

Chains of the proteins cited; added tags and fusions are not shown. Lines headed by an entry give the natural chain unless they say otherwise; changes in a name come on top.
UniProt Q8TB40: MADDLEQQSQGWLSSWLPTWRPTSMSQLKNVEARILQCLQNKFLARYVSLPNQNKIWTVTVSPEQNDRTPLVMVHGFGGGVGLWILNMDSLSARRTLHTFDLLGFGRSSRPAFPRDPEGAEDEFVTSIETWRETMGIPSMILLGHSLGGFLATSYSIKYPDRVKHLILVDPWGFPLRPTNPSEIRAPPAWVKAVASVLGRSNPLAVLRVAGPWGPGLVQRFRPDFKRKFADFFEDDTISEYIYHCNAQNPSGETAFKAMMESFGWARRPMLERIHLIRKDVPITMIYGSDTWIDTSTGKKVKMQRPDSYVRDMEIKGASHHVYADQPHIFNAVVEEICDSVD
UniProt Q8IZP0: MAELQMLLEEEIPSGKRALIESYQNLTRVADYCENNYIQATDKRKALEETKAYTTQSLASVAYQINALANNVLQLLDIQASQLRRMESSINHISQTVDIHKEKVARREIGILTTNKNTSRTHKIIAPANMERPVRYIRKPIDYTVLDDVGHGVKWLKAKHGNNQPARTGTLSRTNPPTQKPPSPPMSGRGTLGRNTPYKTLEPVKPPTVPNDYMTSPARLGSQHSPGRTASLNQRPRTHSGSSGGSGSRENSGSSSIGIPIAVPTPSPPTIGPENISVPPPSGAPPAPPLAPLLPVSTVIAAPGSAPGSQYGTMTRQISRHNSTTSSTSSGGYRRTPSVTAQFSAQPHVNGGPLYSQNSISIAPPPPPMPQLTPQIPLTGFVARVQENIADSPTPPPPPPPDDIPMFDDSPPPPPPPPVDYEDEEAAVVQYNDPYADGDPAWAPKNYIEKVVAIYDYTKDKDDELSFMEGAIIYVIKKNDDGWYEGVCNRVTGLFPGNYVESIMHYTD
UniProt P49748: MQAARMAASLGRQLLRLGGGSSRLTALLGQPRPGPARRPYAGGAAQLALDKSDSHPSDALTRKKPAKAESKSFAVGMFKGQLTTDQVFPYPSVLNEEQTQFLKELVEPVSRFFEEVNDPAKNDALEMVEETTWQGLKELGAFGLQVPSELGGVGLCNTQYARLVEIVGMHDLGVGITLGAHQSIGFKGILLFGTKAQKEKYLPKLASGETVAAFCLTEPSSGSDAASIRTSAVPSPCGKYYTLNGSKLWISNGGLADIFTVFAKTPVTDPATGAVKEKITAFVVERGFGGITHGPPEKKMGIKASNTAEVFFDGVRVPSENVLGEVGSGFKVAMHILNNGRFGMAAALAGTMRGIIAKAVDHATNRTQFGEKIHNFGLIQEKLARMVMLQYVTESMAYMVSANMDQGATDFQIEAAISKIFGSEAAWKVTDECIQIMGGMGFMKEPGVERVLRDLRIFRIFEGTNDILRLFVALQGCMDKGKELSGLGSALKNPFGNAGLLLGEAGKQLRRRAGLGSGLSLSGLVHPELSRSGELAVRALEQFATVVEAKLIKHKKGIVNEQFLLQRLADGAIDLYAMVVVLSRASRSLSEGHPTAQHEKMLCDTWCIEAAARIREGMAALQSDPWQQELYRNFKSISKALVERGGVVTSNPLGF
UniProt Q8NFV4: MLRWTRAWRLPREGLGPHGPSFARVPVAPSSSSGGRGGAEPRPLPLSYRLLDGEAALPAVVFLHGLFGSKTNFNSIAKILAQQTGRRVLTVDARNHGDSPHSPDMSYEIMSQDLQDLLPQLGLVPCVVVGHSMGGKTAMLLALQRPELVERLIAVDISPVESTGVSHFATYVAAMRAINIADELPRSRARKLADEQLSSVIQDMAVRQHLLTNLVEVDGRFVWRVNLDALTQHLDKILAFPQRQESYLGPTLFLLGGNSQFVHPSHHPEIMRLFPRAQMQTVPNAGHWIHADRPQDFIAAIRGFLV
UniProt Q8NE71: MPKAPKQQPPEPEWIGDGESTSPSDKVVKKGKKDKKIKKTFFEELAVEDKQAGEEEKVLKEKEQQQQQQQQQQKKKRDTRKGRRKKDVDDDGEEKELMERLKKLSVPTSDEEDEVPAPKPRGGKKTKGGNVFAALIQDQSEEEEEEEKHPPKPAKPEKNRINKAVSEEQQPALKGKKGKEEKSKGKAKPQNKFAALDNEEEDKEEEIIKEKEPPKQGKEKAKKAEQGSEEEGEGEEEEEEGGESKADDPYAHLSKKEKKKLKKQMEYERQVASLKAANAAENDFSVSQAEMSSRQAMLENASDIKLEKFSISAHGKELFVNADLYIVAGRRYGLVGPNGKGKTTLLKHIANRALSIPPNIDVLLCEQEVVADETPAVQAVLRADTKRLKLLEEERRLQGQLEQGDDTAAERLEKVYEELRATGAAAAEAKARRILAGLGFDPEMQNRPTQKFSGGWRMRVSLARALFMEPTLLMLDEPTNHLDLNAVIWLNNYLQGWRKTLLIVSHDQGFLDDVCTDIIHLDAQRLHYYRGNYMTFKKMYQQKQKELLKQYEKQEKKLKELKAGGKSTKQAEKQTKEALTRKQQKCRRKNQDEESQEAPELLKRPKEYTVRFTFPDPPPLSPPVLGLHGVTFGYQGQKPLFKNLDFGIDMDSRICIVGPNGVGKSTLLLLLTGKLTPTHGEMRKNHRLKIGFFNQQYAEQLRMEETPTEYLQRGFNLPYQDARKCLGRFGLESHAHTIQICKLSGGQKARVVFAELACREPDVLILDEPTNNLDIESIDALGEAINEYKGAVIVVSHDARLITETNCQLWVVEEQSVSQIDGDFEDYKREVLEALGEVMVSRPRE
UniProt Q6UY14: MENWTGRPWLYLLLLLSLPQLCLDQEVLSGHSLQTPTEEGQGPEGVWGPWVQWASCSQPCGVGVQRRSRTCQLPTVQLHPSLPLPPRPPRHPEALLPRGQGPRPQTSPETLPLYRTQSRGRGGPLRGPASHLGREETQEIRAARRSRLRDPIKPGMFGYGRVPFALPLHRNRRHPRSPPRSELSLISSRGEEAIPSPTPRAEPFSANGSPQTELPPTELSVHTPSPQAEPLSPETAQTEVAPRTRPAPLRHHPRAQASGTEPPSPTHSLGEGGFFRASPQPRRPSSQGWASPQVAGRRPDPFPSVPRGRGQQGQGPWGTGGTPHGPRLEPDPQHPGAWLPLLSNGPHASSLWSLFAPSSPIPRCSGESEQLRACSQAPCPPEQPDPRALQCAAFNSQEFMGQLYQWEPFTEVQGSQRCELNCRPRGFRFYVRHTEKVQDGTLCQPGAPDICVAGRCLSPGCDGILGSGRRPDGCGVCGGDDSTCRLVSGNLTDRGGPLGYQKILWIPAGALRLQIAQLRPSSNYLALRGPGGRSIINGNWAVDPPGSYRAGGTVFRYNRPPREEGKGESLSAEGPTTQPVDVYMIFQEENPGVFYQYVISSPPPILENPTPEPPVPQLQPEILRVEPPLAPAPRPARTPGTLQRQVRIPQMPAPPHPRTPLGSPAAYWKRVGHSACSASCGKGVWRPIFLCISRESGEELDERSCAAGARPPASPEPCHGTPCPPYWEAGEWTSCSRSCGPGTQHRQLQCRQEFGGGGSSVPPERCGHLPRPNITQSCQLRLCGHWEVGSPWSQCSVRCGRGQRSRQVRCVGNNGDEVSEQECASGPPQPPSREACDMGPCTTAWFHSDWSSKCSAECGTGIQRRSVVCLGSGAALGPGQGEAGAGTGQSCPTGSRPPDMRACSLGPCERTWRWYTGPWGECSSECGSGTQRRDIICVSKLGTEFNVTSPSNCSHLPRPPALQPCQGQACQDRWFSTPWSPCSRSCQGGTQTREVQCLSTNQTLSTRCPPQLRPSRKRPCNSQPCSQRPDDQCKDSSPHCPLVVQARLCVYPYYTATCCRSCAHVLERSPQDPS
UniProt Q8N2K0: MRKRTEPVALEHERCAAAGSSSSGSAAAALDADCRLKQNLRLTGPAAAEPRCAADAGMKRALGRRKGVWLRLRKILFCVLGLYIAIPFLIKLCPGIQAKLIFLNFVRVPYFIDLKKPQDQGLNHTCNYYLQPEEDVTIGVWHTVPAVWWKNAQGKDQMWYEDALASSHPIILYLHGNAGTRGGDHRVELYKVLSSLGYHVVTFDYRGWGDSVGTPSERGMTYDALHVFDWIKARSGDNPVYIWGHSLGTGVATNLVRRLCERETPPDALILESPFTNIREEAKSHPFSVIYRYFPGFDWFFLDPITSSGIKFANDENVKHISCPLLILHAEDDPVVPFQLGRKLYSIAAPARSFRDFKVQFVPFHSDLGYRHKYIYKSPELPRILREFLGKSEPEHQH
UniProt O60488: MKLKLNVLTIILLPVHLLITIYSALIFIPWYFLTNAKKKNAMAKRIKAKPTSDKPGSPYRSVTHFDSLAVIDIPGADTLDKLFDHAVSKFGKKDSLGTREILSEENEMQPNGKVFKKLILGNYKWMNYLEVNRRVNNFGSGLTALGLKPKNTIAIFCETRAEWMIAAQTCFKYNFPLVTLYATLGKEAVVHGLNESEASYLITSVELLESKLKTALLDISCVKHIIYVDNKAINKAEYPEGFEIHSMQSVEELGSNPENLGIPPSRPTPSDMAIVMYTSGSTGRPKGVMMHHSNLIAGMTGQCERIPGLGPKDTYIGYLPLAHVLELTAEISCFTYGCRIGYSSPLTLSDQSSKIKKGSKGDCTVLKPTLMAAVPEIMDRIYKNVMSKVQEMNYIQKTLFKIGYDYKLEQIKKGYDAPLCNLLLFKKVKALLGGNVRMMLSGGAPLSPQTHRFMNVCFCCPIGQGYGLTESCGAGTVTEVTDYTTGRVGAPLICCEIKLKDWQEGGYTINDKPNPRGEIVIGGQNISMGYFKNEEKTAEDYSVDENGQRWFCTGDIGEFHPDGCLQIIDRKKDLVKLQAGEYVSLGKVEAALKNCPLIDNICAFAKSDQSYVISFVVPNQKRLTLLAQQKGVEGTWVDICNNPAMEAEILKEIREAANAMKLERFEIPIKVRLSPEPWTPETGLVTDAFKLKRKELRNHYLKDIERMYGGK
UniProt Q9Y305: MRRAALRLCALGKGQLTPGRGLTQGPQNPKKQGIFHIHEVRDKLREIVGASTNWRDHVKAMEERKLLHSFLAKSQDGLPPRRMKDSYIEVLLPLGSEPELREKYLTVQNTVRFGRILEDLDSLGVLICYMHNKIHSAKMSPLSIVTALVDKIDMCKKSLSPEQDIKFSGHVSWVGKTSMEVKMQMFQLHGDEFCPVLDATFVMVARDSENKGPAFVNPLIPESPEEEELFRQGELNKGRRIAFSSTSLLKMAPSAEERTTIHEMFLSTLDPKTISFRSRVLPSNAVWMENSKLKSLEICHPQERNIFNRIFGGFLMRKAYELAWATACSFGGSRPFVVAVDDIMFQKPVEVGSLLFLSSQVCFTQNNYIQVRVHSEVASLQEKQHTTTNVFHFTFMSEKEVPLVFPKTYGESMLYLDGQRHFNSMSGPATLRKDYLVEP
UniProt Q9NYB9: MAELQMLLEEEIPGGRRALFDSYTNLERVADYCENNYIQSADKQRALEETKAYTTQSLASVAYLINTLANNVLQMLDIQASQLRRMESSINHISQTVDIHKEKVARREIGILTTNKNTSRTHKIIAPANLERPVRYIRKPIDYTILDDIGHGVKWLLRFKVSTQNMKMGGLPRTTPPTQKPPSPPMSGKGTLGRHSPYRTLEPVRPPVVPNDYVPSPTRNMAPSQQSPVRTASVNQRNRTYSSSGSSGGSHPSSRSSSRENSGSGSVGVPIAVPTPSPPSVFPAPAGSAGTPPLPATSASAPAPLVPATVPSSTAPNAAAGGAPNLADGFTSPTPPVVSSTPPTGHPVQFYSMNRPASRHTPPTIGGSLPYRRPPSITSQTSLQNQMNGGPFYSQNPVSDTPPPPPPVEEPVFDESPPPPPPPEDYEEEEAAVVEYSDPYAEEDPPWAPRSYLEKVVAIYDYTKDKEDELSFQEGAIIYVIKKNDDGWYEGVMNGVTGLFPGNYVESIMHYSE
UniProt Q9UG63: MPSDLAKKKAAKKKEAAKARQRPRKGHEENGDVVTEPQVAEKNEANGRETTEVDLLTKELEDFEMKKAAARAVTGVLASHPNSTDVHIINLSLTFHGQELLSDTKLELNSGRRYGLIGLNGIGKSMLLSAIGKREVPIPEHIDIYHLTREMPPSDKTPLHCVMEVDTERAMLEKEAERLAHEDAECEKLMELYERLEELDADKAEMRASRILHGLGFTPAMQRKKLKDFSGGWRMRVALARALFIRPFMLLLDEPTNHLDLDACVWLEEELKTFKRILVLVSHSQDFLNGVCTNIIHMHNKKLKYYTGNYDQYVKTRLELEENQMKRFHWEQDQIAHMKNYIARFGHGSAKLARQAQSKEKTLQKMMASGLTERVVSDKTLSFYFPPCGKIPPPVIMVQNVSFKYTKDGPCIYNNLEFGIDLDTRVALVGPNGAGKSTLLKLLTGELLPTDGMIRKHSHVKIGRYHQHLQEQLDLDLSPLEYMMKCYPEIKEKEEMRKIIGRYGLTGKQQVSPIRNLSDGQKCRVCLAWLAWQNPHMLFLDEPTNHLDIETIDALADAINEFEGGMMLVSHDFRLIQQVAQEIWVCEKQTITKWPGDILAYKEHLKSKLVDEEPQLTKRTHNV

[1] = compound: Cc1cccc(CC(=O)N2CCc3c2ccc(-c2cn(C)c4ncnc(N)c24)c3F)n1
Summary of the method: as §1

nilotinib = compound: Cc1cn(-c2cc(NC(=O)c3ccc(C)c(Nc4nccc(-c5cccnc5)n4)c3)cc(C(F)(F)F)c2)cn1 [nilotinib]
Summary of the method: as §1

[2] = compound: Cc1nc(Nc2n[nH]c3c2CN(C(=O)N[C@H](CN(C)C)c2ccccc2)C3(C)C)c2sccc2n1
Summary of the method: as §1

dasatinib = compound: Cc1nc(Nc2ncc(C(=O)Nc3c(C)cccc3Cl)s2)cc(N2CCN(CCO)CC2)n1 [dasatinib]
Summary of the method: as §1

[3] = compound: Cc1ncc(-c2ccnc(Nc3ccc(S(C)(=O)=O)cc3)n2)n1C(C)C
Summary of the method: as §1

[4] = compound: Cn1cc(-c2ccc3c(c2)CCN3C(=O)Cc2cccc(C(F)(F)F)c2)c2c(N)ncnc21
Summary of the method: as §1

[5] = compound: Cn1cc(-c2ccc3nnc(C(F)(F)c4ccc5ncccc5c4)n3n2)cn1
Summary of the method: as §1

tipifarnib = compound: Cn1cncc1[C@@](N)(c1ccc(Cl)cc1)c1ccc2c(c1)c(-c1cccc(Cl)c1)cc(=O)n2C [tipifarnib]
Summary of the method: as §1

mubritinib = compound: FC(F)(F)c1ccc(/C=C/c2nc(COc3ccc(CCCCn4ccnn4)cc3)co2)cc1 [mubritinib]
Summary of the method: as §1

Measured: log2 fold change

ABHD4 (UniProt Q8TB40)
inactive: bafetinib -0.122

ABI1 (UniProt Q8IZP0)
inactive: bafetinib -0.099 | [1] 0.036 | nilotinib -0.055 | [2] -0.116 | dasatinib -0.12 | [3] -0.053 | [4] 0.062 | [5] 0.005 | tipifarnib 0.047 | mubritinib 0.016

ACADVL isoform 3 (UniProt P49748)
inactive: bafetinib -0.093 | [1] 0 | nilotinib 0.032 | [2] 0.02 | dasatinib -0.016 | [3] -0.007 | [4] 0.022 | [5] 0.026 | tipifarnib -0.01 | mubritinib 0.071

2 records drawn at random from those above, as already listed:
ABHD4 (UniProt Q8TB40)
inactive: bafetinib -0.122

ABI1 (UniProt Q8IZP0)
inactive: bafetinib -0.099 | [1] 0.036 | nilotinib -0.055 | [2] -0.116 | dasatinib -0.12 | [3] -0.053 | [4] 0.062 | [5] 0.005 | tipifarnib 0.047 | mubritinib 0.016

The results go on:

ABHD11 (UniProt Q8NFV4)
inactive: bafetinib 0.011 | [1] 0.175 | nilotinib 0.003 | [2] -0.006 | dasatinib 0.073 | [3] 0.083 | [4] 0.024 | [5] 0.025 | tipifarnib 0.174 | mubritinib -0.235

ABCF1 (UniProt Q8NE71)
inactive: bafetinib 0.135 | [1] -0.072 | nilotinib 0.084 | [2] 0.108 | dasatinib 0.022 | [3] 0.016 | [4] -0.052 | [5] -0.114 | tipifarnib -0.031 | mubritinib -0.031

ADAMTSL4 isoform 3 (UniProt Q6UY14)
inactive: bafetinib 0.106 | [1] 0.148 | nilotinib 0.115 | [2] -0.001 | dasatinib 0.059 | [3] 0 | [4] -0.058 | [5] -0.154 | tipifarnib 0.121 | mubritinib -0.081

ABHD12 isoform 2 (UniProt Q8N2K0)
inactive: bafetinib -0.044 | [1] -0.149 | nilotinib 0.066 | [2] -0.002 | dasatinib 0.009 | [3] 0.026 | [4] 0 | [5] 0.021 | tipifarnib 0.101 | mubritinib -0.063

ABCD3 (UniProt P28288)
inactive: bafetinib 0.077 | [1] 0.001 | nilotinib 0.058 | [2] 0.069 | dasatinib -0.129 | [3] -0.005 | [4] 0.042 | [5] 0.008 | tipifarnib 0.024 | mubritinib 0.033

ACSL4 (UniProt O60488)
inactive: bafetinib -0.021 | [1] -0.014 | nilotinib -0.027 | [2] -0.063 | dasatinib -0.222 | [3] 0.087 | [4] 0.05 | [5] 0.115 | tipifarnib -0.134 | mubritinib -0.078

ADAT3 (UniProt Q96EY9)
inactive: bafetinib -0.112 | [1] -0.041 | nilotinib -0.011 | [2] 0 | dasatinib -0.05 | [3] -0.02 | [4] 0.015 | [5] 0.037 | tipifarnib -0.004 | mubritinib -0.075

ACOT9 isoform 4 (UniProt Q9Y305)
inactive: bafetinib 0.169 | [1] 0.111 | nilotinib 0.071 | [2] 0.044 | dasatinib 0.036 | [3] -0.034 | [4] 0.04 | [5] -0.049 | tipifarnib 0.009 | mubritinib 0.081

ABI2 (UniProt Q9NYB9)
inactive: bafetinib -0.067 | [1] -0.022 | nilotinib 0.059 | [2] -0.059 | dasatinib -0.103 | [3] -0.023 | [4] 0.042 | [5] -0.013 | tipifarnib 0.025 | mubritinib 0.07

ACACA isoform 4 (UniProt Q13085)
inactive: bafetinib 0.085 | [1] 0.05 | nilotinib -0.07 | [2] -0.098 | dasatinib -0.086 | [3] -0.048 | [4] -0.075 | [5] -0.08 | tipifarnib -0.134 | mubritinib -0.118

ABRAXAS2 (UniProt Q15018)
inactive: bafetinib -0.014 | [1] 0.025 | nilotinib -0.004 | [2] 0.019 | dasatinib 0.063 | [3] -0.013 | [4] 0.014 | [5] 0.005 | tipifarnib 0.01 | mubritinib -0.062

ABCF2 isoform 2 (UniProt Q9UG63)
inactive: bafetinib 0.016 | [1] -0.01 | nilotinib 0.048 | [2] 0.073 | dasatinib -0.038 | [3] 0.017 | [4] 0.016 | [5] 0.02 | tipifarnib -0.049 | mubritinib 0.023

Source: the supplement of paper PMC10849652
